Results deposited as PubChem BioAssay AID493246 (Drosophila RNAi Screening Center, 2011).
Screen: 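Genes fly cells need to grow and stay alive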 (primary screen). Cell system: Drosophila Kc and S2R+ cells. Reagent: long dsRNA against Drosophila genes. Measurement: 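Cell number per well after knock-down, printed as raw plate values; calls were based on per-plate z-scores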. Direction: Kc cell number and S2R+ cell number: higher = more cells remaining. Active means: 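Counted as a hit if cell number falls by a z-score of at least 3 within its plate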.
The deposit covers about 21,000 reagents; this is a random part of those that have a named target and a result. Over the whole deposit, 429 (2%) were called active. 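Values are raw and not normalised between plates; calls rest on per-plate z-scores that were not deposited.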 Entries without a mark were called inactive. Not given: the amount of reagent, the time to read-out.

| predicted target | PubChem SID | Kc cell number, rep 1 | Kc cell number, rep 2 | S2R+ cell number, rep 1 | S2R+ cell number, rep 2 |
| --- | --- | --- | --- | --- | --- |
| CG15651 | SID104184034 | 1.51e6 | 1.60e6 | 1.38e6 | 4.85e5 |
| Act79B (Actin 79B) | SID104191396 | 1.29e6 | 1.24e6 | 1.08e6 | 1.19e6 |
| elav (embryonic lethal abnormal vision) | SID104198564 | 5.08e5 | – | 7.86e5 | – |
| Cyp4s3 (Cytochrome P450 4s3) | SID104200033 | 1.59e6 | 1.53e6 | 1.16e6 | 1.28e6 |
| CG17242 | SID104180285 | 1.62e6 | 1.67e6 | 1.06e6 | 1.13e6 |
| Ddr (Discoidin domain receptor) | SID104180714 | 1.53e6 | 1.58e6 | 1.05e6 | 1.15e6 |
| Ddr (Discoidin domain receptor) | SID104180715 | 1.43e6 | 1.47e6 | 1.04e6 | 1.14e6 |
| Ddr (Discoidin domain receptor) | SID104181942 | 1.62e6 | 1.91e6 | 1.11e6 | 1.26e6 |
| Ddr (Discoidin domain receptor) | SID104183021 | 1.67e6 | 1.74e6 | 1.12e6 | 1.30e6 |
| Ddr (Discoidin domain receptor) | SID104183022 | 1.73e6 | 1.59e6 | 1.15e6 | 1.31e6 |
| nan (nanchung) | SID104190343 | 1.51e6 | 1.49e6 | 1.21e6 | 1.40e6 |
| CG12061 | SID104200507 | 1.57e6 | 1.58e6 | 1.11e6 | 1.26e6 |
| CarT (Carcinine transporter) | SID104182988 | 9.63e5 | 1.01e6 | 8.52e5 | 6.78e5 |
| Hsp67Bc (Heat shock gene 67Bc) | SID104190985 | 1.49e6 | 1.58e6 | 1.24e6 | 1.22e6 |
| CG14568 | SID104191521 | 1.50e6 | 1.94e6 | 1.21e6 | 1.36e6 |
| CG32816 | SID104197129 | 1.12e6 | 1.32e6 | 1.00e6 | 1.09e6 |
| CG5357 (retired record) | SID104184289 | 1.43e6 | 1.54e6 | 1.27e6 | 1.39e6 |
| Acer (Angiotensin-converting enzyme-related) | SID104181644 | 1.43e6 | 1.27e6 | 1.08e6 | 1.04e6 |
| PGRP-SA (Peptidoglycan recognition protein SA) | SID104199212 | 1.51e6 | 1.48e6 | 1.01e6 | 1.11e6 |
| M1BP (Motif 1 Binding Protein) | SID104196358 | 1.43e6 | 1.67e6 | 1.04e6 | 1.14e6 |
| CG13016 | SID104186063 | 1.91e6 | 1.93e6 | 1.37e6 | 1.56e6 |
| bsd (back seat driver) | SID104185745 | 1.93e6 | 1.78e6 | 1.01e6 | 1.23e6 |
| CG32647 | SID104199482 | 1.55e6 | 1.50e6 | 1.04e6 | 1.08e6 |
| CG32647 | SID104199670 | 1.52e6 | 1.44e6 | 9.40e5 | 1.05e6 |

3 consecutive records already listed, quoted:
| predicted target | PubChem SID | Kc cell number, rep 1 | Kc cell number, rep 2 | S2R+ cell number, rep 1 | S2R+ cell number, rep 2 |
| --- | --- | --- | --- | --- | --- |
| CG15651 | SID104184034 | 1.51e6 | 1.60e6 | 1.38e6 | 4.85e5 |
| Act79B (Actin 79B) | SID104191396 | 1.29e6 | 1.24e6 | 1.08e6 | 1.19e6 |
| elav (embryonic lethal abnormal vision) | SID104198564 | 5.08e5 | – | 7.86e5 | – |
